According to the supplement of paper PMC10403144:
Some of the results follow.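 How the source made its calls: active = mitochondrial OCR inhibition above 30% at 1 uM; inactive = 30% or less.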 Many values rest on one well or one pass, so single values are uncertain.

Test system: Toxoplasma gondii RH tachyzoites
Assay: inhibition of mitochondrial O2 consumption rate (% inhibition (relative to pre-injection OCR and atovaquone/antimycin A control)); higher = stronger ETC inhibition
Settings: 1 µM; injection port (sequential injection order): B

Row | Structure (SMILES) | inhibition of mitochondrial O2 consumption rate
1 | Cc1ccccc1C(=O)N1N=C(Nc2ccccc2)SC1(C)C | inactive: -7.46
2 | CC(C)(C)c1cc(C(=O)Nc2cccnc2)cc(C(=O)Nc2cccnc2)c1 | inactive: 3.73
3 | CCC(NC(=O)c1ccccc1NC(=O)c1ccc(C)cc1)C(=O)OC (configuration not stated) | inactive: 1.47
4 | Cc1ccc(S(=O)(=O)N2CCN(C(=O)c3cc(-c4ccccc4)[nH]n3)CC2)cc1 | inactive: 0.13
5 | Oc1c(I)cc(I)c2cccnc12 | inactive: -7.3
6 | Cc1nc2ccccn2c1C(=O)NCc1ccc(Cl)cc1 | inactive: -3.82
7 | FC(F)(F)c1nnc2ccc(Cl)nn12 | inactive: -7.5
8 | Cc1ccc(Oc2ccc(NC(=O)CNc3ccccc3N3CCCC3=O)cc2)cc1 | inactive: 3.17

Same assay, conditions: 1 µM; injection port (sequential injection order): C

Row | Structure (SMILES) | inhibition of mitochondrial O2 consumption rate
9 | c1ccc(Oc2ccc(-c3cc(N4CCNCC4)[nH]n3)cc2)cc1 | inactive: -3.18
10 | CC1=Nc2ccc(Cl)cc2C(O)(c2ccc(C)cc2)N1CCN1CCCCC1 (configuration not stated) | inactive: -14.3
11 | Clc1ccc(Cl)c(CO[C@H]2CCCC[C@@H]2n2ccnc2)c1 | inactive: -12.2
12 | Nc1cccnc1Nc1ccc(Cl)cc1 | inactive: -20.4
13 | O=C(OCc1ccccc1)N1CCC(c2cc(-c3ccncc3)c(-c3ccc(F)cc3)[nH]2)CC1 | inactive: -15.5
14 | Clc1ccc(CN2CCN(C3=NCCN3)CC2)cc1Cl | inactive: -17.2
15 | Nc1ncc(-c2cn[nH]c2)cc1-c1nc2cc(Cl)cnc2[nH]1 | inactive: -4.3
16 | N#Cc1nc(-c2ccccc2F)oc1NCCc1ccccc1 | inactive: -24
17 | CNC(=O)CNc1nc(-c2ccccn2)nc2scc(-c3ccccc3)c12 | inactive: -28.8

Part of the list above, with tabs.
Row	Structure (SMILES)	inhibition of mitochondrial O2 consumption rate
13	O=C(OCc1ccccc1)N1CCC(c2cc(-c3ccncc3)c(-c3ccc(F)cc3)[nH]2)CC1	inactive: -15.5
14	Clc1ccc(CN2CCN(C3=NCCN3)CC2)cc1Cl	inactive: -17.2
